Consider 3 substances from paper PMC11642328.

Amino acid sequences for entries named in this document (tags omitted).
UniProt Q92547: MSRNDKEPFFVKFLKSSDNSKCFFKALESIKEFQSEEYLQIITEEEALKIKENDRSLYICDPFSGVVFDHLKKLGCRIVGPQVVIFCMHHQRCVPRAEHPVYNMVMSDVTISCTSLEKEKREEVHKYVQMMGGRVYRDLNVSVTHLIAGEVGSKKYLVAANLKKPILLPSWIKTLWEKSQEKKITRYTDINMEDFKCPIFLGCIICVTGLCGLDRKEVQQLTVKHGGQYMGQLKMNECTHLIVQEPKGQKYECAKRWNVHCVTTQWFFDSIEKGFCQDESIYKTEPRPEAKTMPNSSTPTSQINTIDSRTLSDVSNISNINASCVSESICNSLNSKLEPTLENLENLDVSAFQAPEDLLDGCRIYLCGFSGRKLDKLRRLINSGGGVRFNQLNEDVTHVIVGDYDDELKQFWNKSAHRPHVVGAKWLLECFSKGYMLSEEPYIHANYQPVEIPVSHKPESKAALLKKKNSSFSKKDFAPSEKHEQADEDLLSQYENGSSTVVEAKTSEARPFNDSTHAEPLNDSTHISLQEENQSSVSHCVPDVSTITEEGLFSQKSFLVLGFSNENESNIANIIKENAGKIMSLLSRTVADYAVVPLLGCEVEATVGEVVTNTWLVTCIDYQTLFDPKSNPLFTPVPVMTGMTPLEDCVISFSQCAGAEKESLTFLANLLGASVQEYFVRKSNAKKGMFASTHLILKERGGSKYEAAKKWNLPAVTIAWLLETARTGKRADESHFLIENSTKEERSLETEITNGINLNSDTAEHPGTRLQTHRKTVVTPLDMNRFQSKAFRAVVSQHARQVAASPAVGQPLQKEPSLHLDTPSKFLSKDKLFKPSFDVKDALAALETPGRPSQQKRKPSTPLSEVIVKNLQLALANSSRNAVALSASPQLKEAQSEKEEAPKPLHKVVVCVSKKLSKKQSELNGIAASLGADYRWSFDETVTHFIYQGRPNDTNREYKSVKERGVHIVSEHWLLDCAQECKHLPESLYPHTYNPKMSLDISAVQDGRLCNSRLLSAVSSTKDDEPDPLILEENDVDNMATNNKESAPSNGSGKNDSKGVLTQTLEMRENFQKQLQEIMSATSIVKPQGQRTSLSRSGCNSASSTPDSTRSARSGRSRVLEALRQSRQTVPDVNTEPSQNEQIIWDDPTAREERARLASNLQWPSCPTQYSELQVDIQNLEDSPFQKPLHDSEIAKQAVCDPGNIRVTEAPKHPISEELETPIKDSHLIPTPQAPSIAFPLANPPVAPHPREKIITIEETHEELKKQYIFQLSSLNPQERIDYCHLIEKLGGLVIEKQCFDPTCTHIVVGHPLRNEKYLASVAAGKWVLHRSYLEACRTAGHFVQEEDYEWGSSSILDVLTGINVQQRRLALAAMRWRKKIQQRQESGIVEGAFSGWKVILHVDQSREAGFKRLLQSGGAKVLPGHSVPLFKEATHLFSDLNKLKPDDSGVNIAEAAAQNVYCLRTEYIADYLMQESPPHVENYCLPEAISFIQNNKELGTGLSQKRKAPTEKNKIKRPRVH
UniProt Q14676: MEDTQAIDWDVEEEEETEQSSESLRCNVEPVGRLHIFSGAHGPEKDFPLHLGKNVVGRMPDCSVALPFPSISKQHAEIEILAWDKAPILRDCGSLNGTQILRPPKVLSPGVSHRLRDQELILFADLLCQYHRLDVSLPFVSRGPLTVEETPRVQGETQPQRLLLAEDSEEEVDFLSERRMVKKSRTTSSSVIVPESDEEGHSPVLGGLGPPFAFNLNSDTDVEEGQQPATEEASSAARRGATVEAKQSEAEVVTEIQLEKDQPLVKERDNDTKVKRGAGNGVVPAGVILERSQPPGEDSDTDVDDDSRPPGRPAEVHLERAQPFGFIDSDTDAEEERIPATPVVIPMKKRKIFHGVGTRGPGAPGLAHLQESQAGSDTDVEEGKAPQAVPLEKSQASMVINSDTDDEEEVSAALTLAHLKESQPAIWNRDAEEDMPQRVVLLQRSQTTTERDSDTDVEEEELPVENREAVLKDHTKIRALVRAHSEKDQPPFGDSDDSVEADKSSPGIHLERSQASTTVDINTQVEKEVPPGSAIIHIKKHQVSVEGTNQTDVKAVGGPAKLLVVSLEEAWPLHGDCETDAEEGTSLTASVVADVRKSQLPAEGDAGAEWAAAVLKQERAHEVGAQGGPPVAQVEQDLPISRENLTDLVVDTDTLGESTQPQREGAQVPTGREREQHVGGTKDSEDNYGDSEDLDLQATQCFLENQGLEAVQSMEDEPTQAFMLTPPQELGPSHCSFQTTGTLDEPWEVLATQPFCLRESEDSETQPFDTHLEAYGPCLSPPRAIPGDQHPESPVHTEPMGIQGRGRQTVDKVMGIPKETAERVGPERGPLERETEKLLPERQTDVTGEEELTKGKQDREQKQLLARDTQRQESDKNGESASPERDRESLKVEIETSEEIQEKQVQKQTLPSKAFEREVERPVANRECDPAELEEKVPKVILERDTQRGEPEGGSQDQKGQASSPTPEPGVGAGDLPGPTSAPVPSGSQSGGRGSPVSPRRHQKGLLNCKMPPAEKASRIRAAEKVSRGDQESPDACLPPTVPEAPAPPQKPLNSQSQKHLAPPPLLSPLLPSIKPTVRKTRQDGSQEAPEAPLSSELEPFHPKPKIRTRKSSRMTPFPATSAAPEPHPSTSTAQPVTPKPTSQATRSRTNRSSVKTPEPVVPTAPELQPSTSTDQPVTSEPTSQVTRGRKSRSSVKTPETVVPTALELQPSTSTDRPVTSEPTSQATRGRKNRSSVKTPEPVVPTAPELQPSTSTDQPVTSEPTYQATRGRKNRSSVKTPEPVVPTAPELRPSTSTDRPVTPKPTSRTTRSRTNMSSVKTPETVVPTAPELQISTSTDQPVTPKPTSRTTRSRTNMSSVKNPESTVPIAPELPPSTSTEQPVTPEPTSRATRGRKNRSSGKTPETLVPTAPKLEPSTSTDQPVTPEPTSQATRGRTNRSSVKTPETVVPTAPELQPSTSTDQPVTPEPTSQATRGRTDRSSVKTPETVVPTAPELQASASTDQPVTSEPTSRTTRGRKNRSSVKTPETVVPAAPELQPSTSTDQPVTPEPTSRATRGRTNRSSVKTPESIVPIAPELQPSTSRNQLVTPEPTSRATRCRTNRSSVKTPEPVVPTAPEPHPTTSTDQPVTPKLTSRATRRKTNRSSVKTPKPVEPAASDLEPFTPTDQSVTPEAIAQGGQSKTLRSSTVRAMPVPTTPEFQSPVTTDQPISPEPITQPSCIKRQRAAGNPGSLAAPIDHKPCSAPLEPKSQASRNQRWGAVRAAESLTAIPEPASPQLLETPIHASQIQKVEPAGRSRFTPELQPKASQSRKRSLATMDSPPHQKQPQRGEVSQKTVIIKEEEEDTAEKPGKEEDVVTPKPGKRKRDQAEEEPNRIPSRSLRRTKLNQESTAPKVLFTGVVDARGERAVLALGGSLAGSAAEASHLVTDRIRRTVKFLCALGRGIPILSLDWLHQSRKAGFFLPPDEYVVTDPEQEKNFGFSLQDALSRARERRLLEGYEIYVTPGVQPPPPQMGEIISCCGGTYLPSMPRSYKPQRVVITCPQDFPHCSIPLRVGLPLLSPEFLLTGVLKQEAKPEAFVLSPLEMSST
UniProt Q16531: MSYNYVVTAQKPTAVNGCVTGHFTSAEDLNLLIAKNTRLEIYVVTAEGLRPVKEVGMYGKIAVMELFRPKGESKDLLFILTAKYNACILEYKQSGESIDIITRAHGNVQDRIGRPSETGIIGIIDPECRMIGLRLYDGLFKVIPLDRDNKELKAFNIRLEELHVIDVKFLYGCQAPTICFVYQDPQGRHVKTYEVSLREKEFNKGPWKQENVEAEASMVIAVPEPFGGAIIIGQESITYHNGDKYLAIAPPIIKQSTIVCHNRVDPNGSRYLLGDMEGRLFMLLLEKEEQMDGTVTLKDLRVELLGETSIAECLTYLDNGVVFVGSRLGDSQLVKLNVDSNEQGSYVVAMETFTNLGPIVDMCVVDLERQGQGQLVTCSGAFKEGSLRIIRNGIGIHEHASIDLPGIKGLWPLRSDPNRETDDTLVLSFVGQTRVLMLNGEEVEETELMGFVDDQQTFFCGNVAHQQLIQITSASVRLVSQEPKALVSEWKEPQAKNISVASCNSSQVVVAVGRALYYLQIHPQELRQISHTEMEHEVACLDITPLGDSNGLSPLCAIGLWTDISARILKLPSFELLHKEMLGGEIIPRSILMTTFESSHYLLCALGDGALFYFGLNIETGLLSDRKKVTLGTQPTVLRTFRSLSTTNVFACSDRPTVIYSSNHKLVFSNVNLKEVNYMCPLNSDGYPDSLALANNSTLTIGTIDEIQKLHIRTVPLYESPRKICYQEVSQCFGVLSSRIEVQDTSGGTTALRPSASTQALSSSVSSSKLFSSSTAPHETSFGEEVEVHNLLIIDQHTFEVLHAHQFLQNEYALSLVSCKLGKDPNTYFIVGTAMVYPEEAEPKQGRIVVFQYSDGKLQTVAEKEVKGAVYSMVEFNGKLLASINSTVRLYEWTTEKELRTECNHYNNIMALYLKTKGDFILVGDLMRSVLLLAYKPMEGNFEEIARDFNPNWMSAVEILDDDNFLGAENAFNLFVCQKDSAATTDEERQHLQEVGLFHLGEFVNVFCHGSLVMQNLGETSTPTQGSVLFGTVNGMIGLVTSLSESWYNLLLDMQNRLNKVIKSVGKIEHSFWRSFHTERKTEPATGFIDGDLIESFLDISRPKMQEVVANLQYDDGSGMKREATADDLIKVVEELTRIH
UniProt O60934: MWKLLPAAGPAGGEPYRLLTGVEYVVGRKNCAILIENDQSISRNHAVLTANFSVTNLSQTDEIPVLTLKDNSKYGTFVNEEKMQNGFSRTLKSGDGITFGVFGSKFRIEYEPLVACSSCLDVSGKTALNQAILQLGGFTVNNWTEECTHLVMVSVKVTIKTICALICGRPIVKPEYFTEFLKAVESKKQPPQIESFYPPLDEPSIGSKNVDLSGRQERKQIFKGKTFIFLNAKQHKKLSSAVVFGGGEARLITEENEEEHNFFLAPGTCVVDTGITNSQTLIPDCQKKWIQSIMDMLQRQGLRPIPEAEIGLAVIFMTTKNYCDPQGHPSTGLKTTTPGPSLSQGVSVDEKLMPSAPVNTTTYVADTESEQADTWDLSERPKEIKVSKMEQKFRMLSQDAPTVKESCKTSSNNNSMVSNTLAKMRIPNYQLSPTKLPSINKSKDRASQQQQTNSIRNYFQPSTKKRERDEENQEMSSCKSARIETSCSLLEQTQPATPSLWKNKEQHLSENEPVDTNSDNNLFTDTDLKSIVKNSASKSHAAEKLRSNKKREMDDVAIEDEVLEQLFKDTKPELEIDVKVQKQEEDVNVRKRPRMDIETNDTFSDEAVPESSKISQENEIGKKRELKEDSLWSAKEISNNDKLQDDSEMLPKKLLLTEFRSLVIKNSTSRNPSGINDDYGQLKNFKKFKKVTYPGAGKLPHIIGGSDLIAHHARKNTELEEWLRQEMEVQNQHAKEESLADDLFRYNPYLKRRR

Test [1] addresses FLAG-tagged human TopBP1 (human) (UniProt Q92547). Put plainly: co-IP; HEK 293T whole cell lysates (transfected or untransfected; mock, IR 10 Gy or UV), lysis buffer 50 mM Tris, 150 mM NaCl, 1 mM EDTA, 0.5% NP-40, 1% Triton X-100; 2 μg antibody on Dynabeads protein G, 3 h, 4 °C; immunoblot.
Test [2] has as its target HA-tagged human MDC1 (human) (UniProt Q14676). The description is as above.

No constants are given. Whether binding was seen depends on the method and setting. In cells and extracts the contact can be indirect. Some entries that bind do so weakly or less than the wild type.

For “HA-tagged human DDB1 (from UniProt Q16531 1-1140)”, the binding entry in test [1] is listed as “binds”.

Turning to “DDB1, endogenous in HEK 293T cells (from UniProt Q16531 1-1140)”, the binding entry in test [2] is given as “binds”.

As for “NBS1, endogenous in HEK 293T cells (from UniProt O60934 1-754)”, in test [2], the binding entry is “binds”.
